Data as given in PubChem BioAssay AID1259308 (NCATS, 2017).
In all, the deposit lists about 59,000 reagents; shown is a part drawn at random. About 1,510 of them (2.6%) were called active. 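Calls use total luciferase alone and ignore viability, so some active siRNAs may act by altering cell number.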 Entries without a mark were called inactive. No sequences are given here.

- Screen: 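Candidate targets for better recombinant protein yield in mammalian cells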 (primary screen)
- Cell system: human HEK293 embryonic kidney cells stably expressing firefly luciferase (HEK-CMV-Luc2-Hygro)
- Knock-down reagent: single siRNA against human genes, 0.8 pmol siRNA per well
- Timing: 72 h
- Detection: 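Luciferase light (ONE-Glo) measured on one replicate plate set and viability (CellTiter-Glo) on the other, scaled to a negative control siRNA, with robust z-scores and luciferase per cell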
- Direction: total luciferase, z-score and total luciferase, % of control: higher = more reporter protein produced; luciferase per cell, z-score: higher = more reporter output per viable cell; viable cells, % of control: higher = more viable cells
- Active means: 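Active when the median/MAD z-score for overall luciferase is greater than 3; a gene was taken forward for validation with new siRNAs if at least two of its three siRNAs passed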
- Meaning of the calls: active = raised luciferase; inactive = no rise

gene | PubChem SID | total luciferase, z-score | total luciferase, % of control | luciferase per cell, z-score | viable cells, % of control
ATP1A2 | SID160721303 | 0.0569 | 83 | -0.262 | 99.4
ATP1A2 | SID160721313 | 0.359 | 89 | -0.188 | 105
ATP1A2 | SID160721324 | -0.73 | 67.4 | -1.01 | 98.2
CES5AP1 | SID160770403 | 0.526 | 92.3 | 0.854 | 82.4
CES5AP1 | SID160770404 | 0.522 | 92.3 | 1.42 | 71
CES5AP1 | SID160770405 | 0.819 | 98.2 | 0.344 | 100
B3GALT2 | SID160720639 | 0.541 | 92.6 | 0.148 | 99.6
B3GALT2 | SID160720640 | 1.41 | 110 | 0.468 | 109
B3GALT2 | SID160720641 | -0.475 | 72.4 | -0.789 | 99.6
FBXW12 | SID160763538 | -2.58 | 30.5 | -1.99 | 57.6
FBXW12 | SID160763539 | 0.689 | 95.6 | 0.906 | 84.1
FBXW12 | SID160763540 | 1.1 | 104 | 1.13 | 86
KDM3A | SID160731534 | 0.698 | 95.8 | 0.711 | 88.7
KDM3A | SID160744442 | 0.00946 | 82.1 | -0.169 | 95.9
KDM3A | SID160744443 | 0.0168 | 82.2 | -0.547 | 106
STAB2 | SID160743823 | -0.287 | 76.2 | 0.0873 | 83.2
STAB2 | SID160743824 | 2.02 | 122 | 1.17 | 100
STAB2 | SID160743825 | 0.416 | 90.2 | 0.0594 | 99.2
IRX5 | SID160727933 | 2.01 | 122 | 1.6 | 89.5
IRX5 | SID160727942 | -0.199 | 77.9 | -0.679 | 104
IRX5 | SID160727953 | -0.597 | 70 | 1.07 | 59
DNAH11 | SID160720626 | -0.397 | 74 | -0.947 | 106
DNAH11 | SID160720627 | -0.526 | 71.4 | -0.00998 | 80
DNAH11 | SID160720628 | -0.141 | 79.1 | -0.597 | 103

Sorted by “total luciferase, z-score” (high to low): 3 of the entries above
gene | PubChem SID | total luciferase, z-score | total luciferase, % of control | luciferase per cell, z-score | viable cells, % of control
DNAH11 | SID160720628 | -0.141 | 79.1 | -0.597 | 103
DNAH11 | SID160720626 | -0.397 | 74 | -0.947 | 106
DNAH11 | SID160720627 | -0.526 | 71.4 | -0.00998 | 80
